Test results from article doi:10.1101/2025.05.23.655724.
Numbering of substitutions follows the chain as printed. Numbers in names are those of the source. These are yes or no findings as the source states them, for the method shown. In cells and extracts the contact can be indirect. A result given as binding can be weak or reduced; the word gives no strength.

T1: catalytically inactive murine meprin α variant E155A (mouse) (UniProt P28825)
T1 sequence: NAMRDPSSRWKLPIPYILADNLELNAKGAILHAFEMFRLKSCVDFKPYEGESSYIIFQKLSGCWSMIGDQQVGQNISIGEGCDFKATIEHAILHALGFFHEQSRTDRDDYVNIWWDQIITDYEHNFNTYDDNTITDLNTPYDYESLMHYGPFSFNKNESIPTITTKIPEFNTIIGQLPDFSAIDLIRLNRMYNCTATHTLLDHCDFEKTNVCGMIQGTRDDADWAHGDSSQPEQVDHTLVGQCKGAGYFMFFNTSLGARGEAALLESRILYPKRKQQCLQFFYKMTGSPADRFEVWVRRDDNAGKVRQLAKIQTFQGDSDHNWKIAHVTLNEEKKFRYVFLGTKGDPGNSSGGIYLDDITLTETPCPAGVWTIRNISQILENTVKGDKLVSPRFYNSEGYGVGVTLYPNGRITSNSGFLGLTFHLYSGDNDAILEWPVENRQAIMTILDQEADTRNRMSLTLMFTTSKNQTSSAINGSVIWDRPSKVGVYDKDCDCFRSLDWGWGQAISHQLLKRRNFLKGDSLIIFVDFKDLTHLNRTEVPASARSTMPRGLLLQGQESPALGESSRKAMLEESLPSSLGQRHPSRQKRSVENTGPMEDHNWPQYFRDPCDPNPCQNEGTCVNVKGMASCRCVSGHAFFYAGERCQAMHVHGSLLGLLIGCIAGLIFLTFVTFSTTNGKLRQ

T2: wildtype (wt) murine meprin α (mouse) (UniProt P28825)
T2 sequence: T1 sequence with A91E

B1: wildtype (wt) murine meprin α (enzyme, UniProt P28825 65-747)
chain: T1 sequence with A91E
B2: catalytically inactive murine meprin α variant E155A (enzyme, UniProt P28825 65-747)
chain: T1 sequence

Assays:
Test in all cases: co-IP
[1] = target: T1, catalytically inactive murine meprin α variant E155A (mouse)
[2] = target: T2, wildtype (wt) murine meprin α (mouse)
[3] = target: C-terminally Myc-FLAG-tagged murine dermokine β (mouse)

binding [1] | binding [2] | binding [3] | Molecule
binds | binds |  | C-terminally Myc-FLAG-tagged murine dermokine β (mouse)
 |  | binds | B1
 |  | binds | B2
